From paper PMC11005689 come the findings set out here.

The chains behind the UniProt entries cited, without tags or fusion partners.
UniProt Q00987: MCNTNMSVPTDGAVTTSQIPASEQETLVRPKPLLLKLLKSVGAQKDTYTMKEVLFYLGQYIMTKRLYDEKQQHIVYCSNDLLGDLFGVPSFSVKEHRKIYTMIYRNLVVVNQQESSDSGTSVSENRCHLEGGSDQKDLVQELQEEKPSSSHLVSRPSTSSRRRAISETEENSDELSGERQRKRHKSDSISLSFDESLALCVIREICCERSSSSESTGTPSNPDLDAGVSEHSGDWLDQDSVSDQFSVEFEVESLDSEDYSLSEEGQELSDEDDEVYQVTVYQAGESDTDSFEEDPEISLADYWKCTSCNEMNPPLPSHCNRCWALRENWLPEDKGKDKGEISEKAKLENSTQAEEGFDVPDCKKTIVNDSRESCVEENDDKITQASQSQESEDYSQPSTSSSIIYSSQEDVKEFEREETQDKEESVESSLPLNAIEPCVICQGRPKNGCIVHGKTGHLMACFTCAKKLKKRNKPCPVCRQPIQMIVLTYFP
UniProt Q7L5N1: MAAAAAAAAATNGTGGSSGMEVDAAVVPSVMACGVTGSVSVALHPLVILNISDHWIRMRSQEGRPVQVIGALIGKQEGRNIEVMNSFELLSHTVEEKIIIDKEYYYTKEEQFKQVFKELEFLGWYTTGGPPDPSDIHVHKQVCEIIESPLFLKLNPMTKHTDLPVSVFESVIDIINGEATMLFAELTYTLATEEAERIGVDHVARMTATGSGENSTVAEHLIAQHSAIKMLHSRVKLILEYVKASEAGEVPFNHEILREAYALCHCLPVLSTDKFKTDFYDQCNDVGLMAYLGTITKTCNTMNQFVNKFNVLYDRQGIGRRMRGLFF
UniProt O43791: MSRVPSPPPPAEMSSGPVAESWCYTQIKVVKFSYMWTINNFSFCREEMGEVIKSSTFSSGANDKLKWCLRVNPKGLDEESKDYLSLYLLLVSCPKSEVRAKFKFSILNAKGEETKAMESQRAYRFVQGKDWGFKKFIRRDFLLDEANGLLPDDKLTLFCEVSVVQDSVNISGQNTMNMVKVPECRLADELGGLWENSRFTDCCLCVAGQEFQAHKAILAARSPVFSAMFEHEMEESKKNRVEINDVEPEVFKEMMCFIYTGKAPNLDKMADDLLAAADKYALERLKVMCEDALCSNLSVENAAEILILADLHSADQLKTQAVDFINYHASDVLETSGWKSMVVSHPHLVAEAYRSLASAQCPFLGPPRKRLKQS

The target in test [1] is MDM2 (UniProt Q00987). The test is described as follows: co-IP; co‐IP with indicated antibodies (Figure 6B,C); cells not given; cell lysates with antibody overnight at 4 °C and Protein A/G agarose per the methods.
Test [2] deals with T1, hydroxymethylglutaryl‐CoA synthase 1 (HMGCS1) (human (endogenous in Huh-7)) (UniProt Q01581).
T1 sequence: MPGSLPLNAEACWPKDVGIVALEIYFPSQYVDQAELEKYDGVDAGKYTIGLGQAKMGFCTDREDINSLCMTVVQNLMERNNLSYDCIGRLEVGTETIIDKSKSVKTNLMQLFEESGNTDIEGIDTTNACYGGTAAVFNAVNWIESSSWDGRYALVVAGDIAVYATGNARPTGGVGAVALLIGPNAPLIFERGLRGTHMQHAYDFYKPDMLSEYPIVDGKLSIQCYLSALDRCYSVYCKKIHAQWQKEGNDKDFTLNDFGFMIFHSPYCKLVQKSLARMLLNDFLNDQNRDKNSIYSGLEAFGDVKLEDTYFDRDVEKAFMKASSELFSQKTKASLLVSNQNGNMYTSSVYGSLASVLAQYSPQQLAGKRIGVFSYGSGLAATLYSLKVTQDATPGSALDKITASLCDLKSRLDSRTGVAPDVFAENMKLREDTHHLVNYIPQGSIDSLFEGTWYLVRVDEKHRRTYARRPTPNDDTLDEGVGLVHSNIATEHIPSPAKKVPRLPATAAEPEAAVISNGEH
Nature of the test: co-IP; immunoprecipitates from Huh‐7 cells treated with MG132 for 6 h, immunoblot (Figure 5K). (In general: Immunoblotting shows a protein as a band on a membrane.)

The target of test [3] is CSN6 (co-IPs of Figure 6B,C) (UniProt Q7L5N1). The test is described as follows: co-IP; co‐IP with indicated antibodies (Figure 6B,C); cells not given; cell lysates with antibody overnight at 4 °C and Protein A/G agarose per the methods.

Results are given in words; binding and its absence hold for the method and conditions named. In cells and extracts the contact can be indirect. Some results given as binding are weak or reduced against the parent protein; the word gives no strength.

Turning to “CSN6 (co-IPs of Figure 6B,C) (from UniProt Q7L5N1 1-327)”, in test [1], the binding result was “binds”. For CSN6 (from UniProt Q7L5N1 1-327), the binding result in test [2] is recorded as “binds”.

Take MDM2 (from UniProt Q00987 1-491): in test [3], the binding entry is “binds”. In the case of “SPOP (co-IPs of Figure 6B,C) (from UniProt O43791 1-374)”, the binding result in test [1] and in test [3] was “binds” each time. Turning to “speckle‐type POZ protein (SPOP) (from UniProt O43791 1-374)”, the binding result in test [2] was “binds”.
